Results are given in words; binding and its absence hold for the method and conditions named. Some entries that bind do so weakly or less than the wild type.
How the values were obtained:
[1] = molecular target: LRP5 (as used in Example 11) (UniProt O75197); experiment: summary of Example 11
[2] = molecular target: LRP6 (as used in Example 11) (UniProt O75581); experiment: competition with 125I-Mesd for LRP6
[3] = molecular target: LRP5 (as used in Example 11) (UniProt O75197); experiment: legend of FIG. 10

Chains of the proteins cited; added tags and fusions are not shown. Residues count along the entry.
UniProt O75197, residues 32-1615: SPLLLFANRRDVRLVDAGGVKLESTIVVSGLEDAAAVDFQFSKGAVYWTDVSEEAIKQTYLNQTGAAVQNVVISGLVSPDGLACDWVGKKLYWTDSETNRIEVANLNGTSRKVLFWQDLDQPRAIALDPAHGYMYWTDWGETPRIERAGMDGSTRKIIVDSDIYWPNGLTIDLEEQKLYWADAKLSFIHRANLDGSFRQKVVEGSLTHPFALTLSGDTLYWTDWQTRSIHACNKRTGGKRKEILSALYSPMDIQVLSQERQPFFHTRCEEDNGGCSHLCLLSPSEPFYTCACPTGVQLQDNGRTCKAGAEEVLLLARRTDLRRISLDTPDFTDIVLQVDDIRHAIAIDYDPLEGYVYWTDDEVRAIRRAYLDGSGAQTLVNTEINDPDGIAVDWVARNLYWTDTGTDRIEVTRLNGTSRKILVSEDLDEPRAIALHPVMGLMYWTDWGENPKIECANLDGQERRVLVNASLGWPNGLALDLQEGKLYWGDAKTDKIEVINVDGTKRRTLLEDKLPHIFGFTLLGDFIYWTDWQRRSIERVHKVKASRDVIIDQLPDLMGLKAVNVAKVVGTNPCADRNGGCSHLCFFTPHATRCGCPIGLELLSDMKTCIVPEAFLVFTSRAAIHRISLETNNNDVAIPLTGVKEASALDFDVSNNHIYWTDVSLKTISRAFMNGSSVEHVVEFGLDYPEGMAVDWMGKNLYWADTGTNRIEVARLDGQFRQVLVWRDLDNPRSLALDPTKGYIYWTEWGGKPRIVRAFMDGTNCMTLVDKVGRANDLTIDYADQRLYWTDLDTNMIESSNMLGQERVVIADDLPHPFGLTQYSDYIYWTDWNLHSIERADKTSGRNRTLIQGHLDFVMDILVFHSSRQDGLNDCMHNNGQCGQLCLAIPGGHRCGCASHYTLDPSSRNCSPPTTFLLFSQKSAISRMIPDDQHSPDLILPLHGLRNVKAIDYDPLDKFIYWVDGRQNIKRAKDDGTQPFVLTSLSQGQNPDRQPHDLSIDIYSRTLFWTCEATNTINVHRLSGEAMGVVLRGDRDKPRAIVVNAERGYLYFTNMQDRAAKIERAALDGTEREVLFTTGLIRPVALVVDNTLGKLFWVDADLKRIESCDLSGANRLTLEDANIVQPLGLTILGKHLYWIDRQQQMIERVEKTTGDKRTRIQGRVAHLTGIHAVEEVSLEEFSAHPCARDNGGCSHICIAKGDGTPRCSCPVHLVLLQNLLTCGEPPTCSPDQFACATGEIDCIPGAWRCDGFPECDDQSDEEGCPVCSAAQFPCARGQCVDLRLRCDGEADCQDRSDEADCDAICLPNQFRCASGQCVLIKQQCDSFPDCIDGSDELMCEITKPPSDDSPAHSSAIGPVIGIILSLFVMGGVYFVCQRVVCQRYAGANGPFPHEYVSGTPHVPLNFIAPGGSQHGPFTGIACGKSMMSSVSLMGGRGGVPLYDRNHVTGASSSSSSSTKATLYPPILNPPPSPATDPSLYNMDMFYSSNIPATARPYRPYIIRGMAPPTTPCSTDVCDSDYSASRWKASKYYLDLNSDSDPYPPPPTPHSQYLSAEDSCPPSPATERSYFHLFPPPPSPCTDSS
UniProt O75581, residues 20-1613: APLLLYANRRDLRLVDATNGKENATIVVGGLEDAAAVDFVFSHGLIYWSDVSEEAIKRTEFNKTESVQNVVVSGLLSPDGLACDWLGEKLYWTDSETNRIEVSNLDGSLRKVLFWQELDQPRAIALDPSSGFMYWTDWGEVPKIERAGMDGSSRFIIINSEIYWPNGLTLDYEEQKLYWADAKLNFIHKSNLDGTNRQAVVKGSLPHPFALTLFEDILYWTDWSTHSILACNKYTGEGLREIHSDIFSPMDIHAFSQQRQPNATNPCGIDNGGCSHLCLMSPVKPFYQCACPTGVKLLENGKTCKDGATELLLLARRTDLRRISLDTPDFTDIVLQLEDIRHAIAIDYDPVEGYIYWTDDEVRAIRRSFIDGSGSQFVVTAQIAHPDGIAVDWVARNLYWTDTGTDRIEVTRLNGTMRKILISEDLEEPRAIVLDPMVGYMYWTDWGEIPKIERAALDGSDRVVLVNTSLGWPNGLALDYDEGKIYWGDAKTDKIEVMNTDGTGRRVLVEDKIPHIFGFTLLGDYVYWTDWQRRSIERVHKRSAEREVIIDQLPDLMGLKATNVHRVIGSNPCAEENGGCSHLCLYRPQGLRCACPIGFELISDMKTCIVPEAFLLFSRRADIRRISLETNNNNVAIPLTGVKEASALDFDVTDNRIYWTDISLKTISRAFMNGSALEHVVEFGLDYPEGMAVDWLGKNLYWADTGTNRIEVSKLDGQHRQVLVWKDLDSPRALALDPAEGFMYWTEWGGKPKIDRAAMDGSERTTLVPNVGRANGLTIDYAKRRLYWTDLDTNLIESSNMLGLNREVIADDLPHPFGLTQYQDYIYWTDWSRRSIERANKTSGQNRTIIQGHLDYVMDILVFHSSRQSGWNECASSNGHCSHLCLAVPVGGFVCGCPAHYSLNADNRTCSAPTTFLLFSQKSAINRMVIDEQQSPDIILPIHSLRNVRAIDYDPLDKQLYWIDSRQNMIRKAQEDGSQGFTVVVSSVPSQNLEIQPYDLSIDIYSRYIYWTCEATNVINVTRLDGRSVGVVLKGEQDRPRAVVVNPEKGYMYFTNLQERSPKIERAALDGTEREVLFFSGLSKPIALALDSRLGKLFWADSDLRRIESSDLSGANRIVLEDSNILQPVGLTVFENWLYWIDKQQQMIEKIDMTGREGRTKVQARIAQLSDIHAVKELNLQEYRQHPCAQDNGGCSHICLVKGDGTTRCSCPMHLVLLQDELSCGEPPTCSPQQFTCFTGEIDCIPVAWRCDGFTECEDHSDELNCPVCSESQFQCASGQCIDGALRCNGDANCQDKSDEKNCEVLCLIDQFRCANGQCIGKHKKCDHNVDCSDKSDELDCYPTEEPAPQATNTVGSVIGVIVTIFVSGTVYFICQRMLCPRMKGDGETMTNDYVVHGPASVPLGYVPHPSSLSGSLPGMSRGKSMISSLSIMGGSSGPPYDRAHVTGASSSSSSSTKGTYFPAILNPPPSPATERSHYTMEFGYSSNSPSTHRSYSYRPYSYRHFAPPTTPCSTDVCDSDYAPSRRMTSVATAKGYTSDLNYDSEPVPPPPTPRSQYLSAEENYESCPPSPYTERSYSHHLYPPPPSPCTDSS

binding [1]: binds
binding [2]: binds
binding [3]: binds
B1: recombinant mouse Mesd protein (wild type) (protein, not shown: small tags and cut ends)
chain: ADTPGEATPPPRKKKDIRDYNDADMARLLEQWEKDDDIEEGDLPEHKRPSAPIDFSKLDPGKPESILKMTKKGKTLMMFVTVSGNPTEKETEEITSLWQGSLFNANYDVQRFIVGSDRAIFMLRDGSYAWEIKDFLVSQDRCAEVTLEGQMYPGKGGGSKEKNKTKPEKAKKKEGDRKPRASKEDNRAGSRREDL
modifications: 125I-labelled (IODO-GEN method) where used as tracer
